Odorant receptor activation data for six compounds are collected here from the odorant receptor screen of Mainland et al. (2015).

Chains of the proteins cited; added tags and fusions are not shown. A line that says so, or that is headed by a name, gives the form on record, which may keep a tag or linker.
OR4F14 A297T, as listed by the source, stated change not applied: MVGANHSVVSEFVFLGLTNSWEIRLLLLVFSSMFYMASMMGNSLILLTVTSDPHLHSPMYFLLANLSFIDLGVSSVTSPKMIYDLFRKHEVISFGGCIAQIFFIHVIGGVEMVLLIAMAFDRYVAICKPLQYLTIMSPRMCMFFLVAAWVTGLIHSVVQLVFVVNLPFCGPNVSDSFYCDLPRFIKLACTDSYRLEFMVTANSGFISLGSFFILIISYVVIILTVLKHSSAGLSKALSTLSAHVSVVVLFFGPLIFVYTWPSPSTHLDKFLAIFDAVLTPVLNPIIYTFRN

Several values for one entry are separate records, joined by “and”; a condition that tells them apart may be missing. Identical values can stand only once. The list shows a part of the results. Each value is one well over the wells without odorant, computed here; the data are noisy.

Test systems include OR4B1 clone 1189; OR4C11 clone 1244; OR4C12 V283L clone 1155; OR4C15 clone 1337; OR4C15 clone 1449; OR4C3 clone 1284; OR4C3 clone 1480; OR4C46 K288R clone 1483; OR4C5 clone 1307; OR4D1 R54Q clone 1467; OR4D1 clone 1316; OR4D10 clone 1174; OR4D11 clone 1243; OR4D5 clone 1122; OR4D6 D96G clone 1225; OR4D9 clone 1217; OR4F14 A297T clone 1059.
Common to all, as to assay: odorant receptor activation (CRE luciferase / Renilla) (fold of no-odor wells); higher = more activation
What all share (conditions): 100 µM

The test system of test [1] is OR4C16 V25L/T76A/L259P clone 1237.
Test [2] relates to OR4D2 C97S/L187F clone 1285.
Test [3] deals with OR4E2 V118M/Q234R clone 1274.

As for `CCCCCCCC=CC=O` [2-decenal], the odorant receptor activation in the test on OR4B1 clone 1189 is 0.839; in the test with OR4C11 clone 1244 it was 1.36; in the test on OR4C12 V283L clone 1155, 1.27; with OR4C15 clone 1337, 1.11; in the test on OR4C15 clone 1449, 0.944; in [1], 1.42. Further, the odorant receptor activation in the test with OR4C3 clone 1284 came to 1.39; in the test with OR4C3 clone 1480, 1.64; with OR4C46 K288R clone 1483, 2.06; in the test on OR4C5 clone 1307 it was 1.37; in the test on OR4D1 R54Q clone 1467, 2.23; in the test on OR4D1 clone 1316, 1.23. Also, the odorant receptor activation in the test with OR4D10 clone 1174 turned out to be 1.06; in the test on OR4D11 clone 1243, 1.89; in [2] it was 2.56; in the test on OR4D5 clone 1122, 1.22; with OR4D6 D96G clone 1225, 0.795; in the test with OR4D9 clone 1217, 0.712. The values for the odorant receptor activation (in test [3]; in the test with OR4F14 A297T clone 1059) were 1.19 and 10.1, respectively.
`C=C(C)C1CC=C(C)C(=O)C1` (stereo not given) [r-carvone]: the odorant receptor activation in the test with OR4B1 clone 1189 amounted to 0.762; with OR4C11 clone 1244, 0.928; in the test with OR4C12 V283L clone 1155, 0.759; in the test with OR4C15 clone 1337 it was 0.8; with OR4C15 clone 1449, 1.17; in [1] it was 0.684. The odorant receptor activation with OR4C3 clone 1284 came to 0.859; in the test on OR4C3 clone 1480, 0.845; in the test with OR4C46 K288R clone 1483 it was 0.863; in the test on OR4C5 clone 1307, 1.08; in the test with OR4D1 R54Q clone 1467 it was 1.1; in the test with OR4D1 clone 1316, 0.842. Also, the odorant receptor activation worked out at 0.684 with OR4D10 clone 1174; 0.707 with OR4D11 clone 1243; 0.702 in [2]; 0.981 in the test with OR4D5 clone 1122; 1.18 in the test on OR4D6 D96G clone 1225; 1.39 with OR4D9 clone 1217. In addition, the odorant receptor activation in [3] amounted to 1.02; with OR4F14 A297T clone 1059, 0.956.
In the case of `CCCCCOC(C)=O` [n-amyl acetate], the odorant receptor activation was 0.714 in the test on OR4B1 clone 1189; 0.951 in the test with OR4C11 clone 1244; 0.497 in the test with OR4C12 V283L clone 1155; 0.318 in the test on OR4C15 clone 1337; 0.942 and 0.729 in the test on OR4C15 clone 1449; 1.12 in test [1]. In addition, the odorant receptor activation is 0.511 with OR4C3 clone 1284; 0.808 and 0.977 in the test on OR4C3 clone 1480; 0.595 and 0.747 in the test with OR4C46 K288R clone 1483; 0.31 in the test on OR4C5 clone 1307; 0.351 and 0.482 in the test on OR4D1 R54Q clone 1467; 0.205 with OR4D1 clone 1316. Also, the odorant receptor activation in the test on OR4D10 clone 1174 is 0.608; with OR4D11 clone 1243 it was 0.473; in [2], 0.711; in the test on OR4D5 clone 1122, 1.02; in the test on OR4D6 D96G clone 1225 it was 0.627; in the test on OR4D9 clone 1217, 0.711. Also, the odorant receptor activation in test [3] was 0.389; in the test with OR4F14 A297T clone 1059 it was 1.74.
For the compound `CC1CCC(C(C)C)C(O)C1` (single isomer, unassigned; (+)) [(+)-menthol], the odorant receptor activation in the test on OR4B1 clone 1189 stood at 1.26; in the test on OR4C11 clone 1244, 1.02; in the test with OR4C12 V283L clone 1155 it was 1.07; in the test on OR4C15 clone 1337, 0.955; in the test on OR4C15 clone 1449, 0.948; in [1], 0.698. In addition, the odorant receptor activation in the test on OR4C3 clone 1284 turned out to be 0.907; with OR4C3 clone 1480, 0.978; with OR4C46 K288R clone 1483, 1.19; in the test on OR4C5 clone 1307, 1.05; in the test on OR4D1 R54Q clone 1467, 0.925; with OR4D1 clone 1316, 0.936. The odorant receptor activation in the test on OR4D10 clone 1174 is 1.07; with OR4D11 clone 1243 it was 1.01; in test [2], 1.14; in the test on OR4D5 clone 1122, 0.781; in the test on OR4D6 D96G clone 1225 it was 0.723; with OR4D9 clone 1217, 1.64. Further, the values for the odorant receptor activation (in test [3]; with OR4F14 A297T clone 1059) were 0.737 and 3.95, respectively.
As for `CC/C=C\CCO` [cis-3-hexen-1-ol], the odorant receptor activation is 1.03 in the test with OR4B1 clone 1189; 1.06 in the test with OR4C11 clone 1244; 1.06 in the test with OR4C12 V283L clone 1155; 1.01 with OR4C15 clone 1337; 0.139 with OR4C15 clone 1449; 0.912 in test [1]. Moreover, the odorant receptor activation came to 0.674 in the test with OR4C3 clone 1284; 0.773 in the test with OR4C3 clone 1480; 0.928 in the test with OR4C46 K288R clone 1483; 1.1 in the test with OR4C5 clone 1307; 0.985 in the test with OR4D1 R54Q clone 1467; 0.888 with OR4D1 clone 1316. The odorant receptor activation in the test with OR4D10 clone 1174 is 1.16; in the test on OR4D11 clone 1243, 1.01; in [2], 0.9; in the test with OR4D5 clone 1122 it was 1.2; in the test on OR4D6 D96G clone 1225, 0.969; with OR4D9 clone 1217, 0.921. Also, the odorant receptor activation turned out to be 1.15 in [3] and 1.21 in the test on OR4F14 A297T clone 1059.
Consider `COc1cc(C)ccc1O` [2-methoxy-4-methylphenol], for which the odorant receptor activation was determined as 1.12 with OR4B1 clone 1189; 0.903 with OR4C11 clone 1244; 1.38 in the test with OR4C12 V283L clone 1155; 1.06 with OR4C15 clone 1337; 1.15 in the test with OR4C15 clone 1449; 1.07 in test [1]. Also, the odorant receptor activation is 0.844 in the test on OR4C3 clone 1284; 0.74 with OR4C3 clone 1480; 0.862 with OR4C46 K288R clone 1483; 1.07 in the test with OR4C5 clone 1307; 0.683 in the test with OR4D1 R54Q clone 1467; 1 in the test with OR4D1 clone 1316. In addition, the odorant receptor activation in the test with OR4D10 clone 1174 is 1.21; in the test with OR4D11 clone 1243 it was 0.834; in [2], 0.998; with OR4D5 clone 1122 it was 0.839; in the test with OR4D6 D96G clone 1225, 0.852; with OR4D9 clone 1217 it was 1.15. Moreover, the results for the odorant receptor activation (in test [3]; with OR4F14 A297T clone 1059) were 0.925 and 1.62, respectively.
